PubChem BioAssay AID652259 – Drosophila RNAi Screening Center – 2013
The deposit covers about 22,000 reagents; below is a random part of those with a known target gene and a result. In the full data, 233 (1.1%) got an active call. 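Light values are raw, unnormalised plate reads; the ratio scores behind the reporter calls were not deposited.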 Reagents against one gene are numbered here. A plus sign joins genes that one reagent is predicted to hit. Not stated in the record: the amount of reagent, the time to read-out, the dose of the treatment.

Purpose: 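Identify new Wingless signalling regulators in fly cells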 (primary screen)
Cells: Drosophila clone 8 imaginal disc epithelial cells
Knock-down reagent: long dsRNA against Drosophila genes
Conditions: pathway stimulated by co-transfected Wingless expression plasmid
Measurement: 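Dual luciferase reads per well after Wingless plasmid stimulation: reporter firefly light and Renilla control light; activity is firefly divided by Renilla, a ratio not deposited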
Scale: firefly reporter light: higher = more Wg reporter light, before normalisation; Renilla control light: higher = more transfected or surviving cells
Call rule: 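Strong candidates differ from their plate mean by at least two out of four per-plate statistical tests; weak candidates meet just one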
Calls: active = candidate regulator (raises or lowers reporter); inactive = not a candidate

firefly reporter light, replicate 1	firefly reporter light, replicate 2	Renilla control light, replicate 1	Renilla control light, replicate 2	activity call	target gene	reagent
13065		6616		inactive	Dhdds (Dehydrodolichyl diphosphate synthase subunit)	1
3394	4832	1216	1432	inactive	Nep4 (Neprilysin 4)	1
11890		4829		inactive	Sesn (Sestrin)	1
4970	9821	1383	4006	inactive	Sesn (Sestrin)	2
3632	8185	859	3456	inactive	Sesn (Sestrin)	3
4283		1808		inactive	CG32073	1
6680		3130		inactive	CG32073	2
2523		960		inactive	RhoGAP68F (Rho GTPase activating protein at 68F)	1
9788		3772		inactive	Or98b (Odorant receptor 98b)	1
2.27e5	3.21e5	1.11e5	1.19e5	inactive	Or98b (Odorant receptor 98b)	2
2612		1010		inactive	vanin-like	1
3261		711		inactive	CG32668	1
5144		2200		inactive	CG18327	1
2359	5725	1092	625	inactive	CG10550	1
18295		12950		inactive	CG32523	1
2549	4421	659	1026	inactive	Rpn9 (Regulatory particle non-ATPase 9)	1
6194		2784		inactive	Sdb (SAXO downstream of blistered)	1
9414		3910		inactive	Sdb (SAXO downstream of blistered)	2
13441		4464		inactive	Sdb (SAXO downstream of blistered)	3
22212		3978		inactive	CG7646	1
3100	5723	1639	2553	inactive	unc79 (uncoordinated 79)	1
9827		3376		inactive	Spt-I (Serine palmitoyltransferase subunit I)	1
5914		2387		inactive	Rad9	1
3931		1149		inactive	CG3719	1
7.22e5	7.16e5	3.14e5	3.12e5	inactive	sphinx2	1
17692	7.25e5	6250	2.78e5	inactive	MFS14 (Major Facilitator Superfamily Transporter 14)	1
22729		14099		inactive	Ldsdh1 (Lipid droplet subset dehydrogenase 1)	1
11873		2597		inactive	CG3199	1
7722	7.23e5	2604	2.49e5	inactive	Toll-7	1
7705		3139		inactive	mTerf3 (mitochondrial transcription termination factor 3)	1
18983		9188		inactive	ham (hamlet)	1
2042	6547	625	2486	inactive	ham (hamlet)	2
4148	10605	1017	4242	inactive	ham (hamlet)	3
3987	13601	800	5088	inactive	ham (hamlet)	4
7762		3488		inactive	CG33116	1
4790		2306		inactive	Nup160 + RfC38	1
3250	7117	1659	2540	inactive	CG2962	1
3840	5033	968	3013	inactive	TwdlE (TweedleE)	1
1724		761		inactive	stwl (stonewall)	1
9787		3221		inactive	CG15118	1
14100		5988		inactive	Eogt (EGF-domain O-GlcNAc transferase)	1
26652		7558		inactive	CG14435	1
13602		3969		inactive	CG8180	1
4776		1225		inactive	CG8180	2
16434		11993		inactive	brv3 (brivido-3)	1
2874	7581	682	2629	inactive	Pmvk (Phosphomevalonate kinase)	1
2960	5719	1483	995	inactive	CG3251	1
1530	5762	1184	2544	inactive	CG7194	1
18109		9275		inactive	CG5800	1

Reformatted: 4 of the entries above
"firefly reporter light, replicate 1","firefly reporter light, replicate 2","Renilla control light, replicate 1","Renilla control light, replicate 2",activity call,target gene,reagent
11873,,2597,,inactive,CG3199,1
7722,7.23e5,2604,2.49e5,inactive,Toll-7,1
7705,,3139,,inactive,mTerf3 (mitochondrial transcription termination factor 3),1
18983,,9188,,inactive,ham (hamlet),1
